In PubChem BioAssay AID1347426 (Functional Genomics Laboratory (NCATS/FGL), 2020):
About 1,400 (4.5%) of roughly 31,000 sequences were called active.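 Rule for the calls: active = median seed-adjusted z-score above 1 or below -1; inactive = the rest.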 The list shows a part of the results.

Assay: Novel Modifiers of Survival Motor Neuron (SMN) Protein: Gene Identification via Genome-wide siRNA Screen;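 note: luminescence tracks full-length SMN protein made from the SMN2 reporter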
Details: HEK293T SMN2-luciferase reporter, siRNA knockdown, 72 h; actives lie on both sides
In short: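 HEK293T cells stably expressing an SMN2 splicing/cDNA-luciferase reporter were reverse-transfected with a druggable-genome siRNA library and read by luminescence at 72 hours; hits defined by MAD score above 1.0 or below -1.0.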
In the case of GGAGUUUUUCGGAGCUGUATT against SIPA1, the median seed-adjusted z-score is reported as inactive: -0.0872.
With CUGAUCCUCUGGAUAAUCATT against SPTLC1 the median seed-adjusted z-score was inactive: 0.0941.
For CAGUUACUCCAGAGGCUAATT against RAB42, the median seed-adjusted z-score was inactive: 0.241.
In the case of GAUCCAGAAGGGUAGUUAUTT against SERPINB2, the median seed-adjusted z-score is reported as inactive: -0.0739.
With GGUGGAAGUGGUCAACGUATT against DUSP21 the median seed-adjusted z-score was inactive: -0.0724.
In the case of GAAACGCAGAGGGAUCAUATT against HEYL, the median seed-adjusted z-score is reported as inactive: 0.48.
In the case of CGAGGAAUAUAUAGGUGUATT against CD3D, the median seed-adjusted z-score is reported as inactive: -0.403.
For GCAUCUAGGUAGCAAUGUUTT against SLITRK5, the median seed-adjusted z-score was inactive: 0.165.
In the case of GGAACAGUGCCGGCAAGAATT against CYP4F11, the median seed-adjusted z-score is reported as inactive: 0.307.
In the case of CAAUCAGAAUUACUAGAUUTT against TXNDC11, the median seed-adjusted z-score is reported as inactive: 0.642.
With CUCCUAAAGUGAUUGGUAUTT against HSPA13 the median seed-adjusted z-score was inactive: 0.
With GGUAAGAAGGAUUCCAUUATT against SHOX the median seed-adjusted z-score was inactive: 0.316.
In the case of GGACCCUACCAGAACUACATT against SEMA6D, the median seed-adjusted z-score is reported as inactive: 0.0624.
For CAAAUAAGAAGGCCCAAUATT against SAV1, the median seed-adjusted z-score was inactive: 0.766.
With GCAGCUCAGCAGUUUAGUATT against MYO18A the median seed-adjusted z-score was inactive: 0.174.
For GCAAGGCUAUUAUAGAUCATT against CTNNA3, the median seed-adjusted z-score was inactive: 0.249.
With ACACCACGCUCAACAUCAATT against ZBED1 the median seed-adjusted z-score was inactive: 0.0567.
In the case of CGGAUGAAAUCCUGACGUATT against AHR, the median seed-adjusted z-score is reported as inactive: -0.0422.
For CCAGGUCCAUGGAAAGAAATT against NEIL2, the median seed-adjusted z-score was inactive: -0.256.
With CCAUUGACUUUCAAUUAUUTT against PVRL3 the median seed-adjusted z-score was inactive: -0.0385.
For GAAUGCUGUUUAUCUUAAUTT against PNPLA1, the median seed-adjusted z-score was inactive: 0.00692.
With GGGUCCCUAUUAUCCAGCATT against BAT3 the median seed-adjusted z-score was inactive: 0.567.
With GGAGAAAGAAUGACGAGAATT against TGFBR2 the median seed-adjusted z-score was inactive: 0.8.
For CGUAAUCAAAUCUACCAAATT against LGR4, the median seed-adjusted z-score was inactive: 0.14.
For GAAAGAAUUUCACUACAAUTT against HOXB7, the median seed-adjusted z-score was inactive: -0.153.
In the case of CAAGCCGGAUGGUACGUAUTT against CDA, the median seed-adjusted z-score is reported as inactive: 0.471.
For GGAUUACAGGAGGCAAUCATT against PGM3, the median seed-adjusted z-score was inactive: -0.527.
For CAUUGUCAGUCGGAGUAUATT against RPA4, the median seed-adjusted z-score was inactive: 0.132.
With CUUCUGAGAUUUCGACGAATT against GLRA3 the median seed-adjusted z-score was inactive: 0.0585.
In the case of GGCGAUCACAGAUAUCAUUTT against RABGEF1, the median seed-adjusted z-score is reported as inactive: 0.278.
For GAAAGACGAGAACUAUUUATT against EHF, the median seed-adjusted z-score was inactive: 0.581.
In the case of CUAUGACCAAUGAACCAGATT against SERINC1, the median seed-adjusted z-score is reported as inactive: -0.255.
For GAGUAAGUGAAAUAGAACATT against ZBTB26, the median seed-adjusted z-score was inactive: 0.
With GGAUCCAAAUGGACAUUCATT against MLF1 the median seed-adjusted z-score was inactive: 0.258.
In the case of UCUUCACCGUGUGCCUAGATT against CRAT, the median seed-adjusted z-score is reported as active: -1.42.
In the case of AGUUCUCUCAGGACGGUAATT against IDUA, the median seed-adjusted z-score is reported as inactive: -0.353.
In the case of AGAGCUGAGUGGUAGCUUATT against FGD3, the median seed-adjusted z-score is reported as inactive: 0.245.
In the case of GCCUCGUUCUGAAGACGAUTT against LIPC, the median seed-adjusted z-score is reported as inactive: 0.244.
With ACUCAUCAAUGGAGGUGUATT against SLC25A18 the median seed-adjusted z-score was inactive: -0.0227.
For GAAUCUAUGAGCUUCGAAATT against PSMB5, the median seed-adjusted z-score was active: -1.37.
With CAAGGACCUUUACCGAACATT against PTPRJ the median seed-adjusted z-score was inactive: 0.0522.
In the case of AAGCCUACCAGGUCAAGUATT against EVI5L, the median seed-adjusted z-score is reported as inactive: 0.0497.
In the case of GGACUUUGCCUAUAGGUCATT against ZNF445, the median seed-adjusted z-score is reported as inactive: -0.0752.
In the case of GGACCUUUAUCUUGUCGAATT against TMPRSS7, the median seed-adjusted z-score is reported as inactive: 0.0269.
With GCAGAAAUGCUUUCUAACATT against MAPK1 the median seed-adjusted z-score was inactive: 0.
With UGCCAUUGCUGAAAUCCGATT against DUSP23 the median seed-adjusted z-score was inactive: -0.537.
For CCAGAUGGAUGUACACUGUTT against PDE6C, the median seed-adjusted z-score was inactive: 0.205.
With GAAUAUGGGUUGGCCUAUATT against ZNF655 the median seed-adjusted z-score was inactive: -0.156.
In the case of GGAAUACUUCUGAGGGUAATT against ZNF561, the median seed-adjusted z-score is reported as inactive: -0.00904.
With CAUGCACUCCGCUUACAAATT against SNRNP70 the median seed-adjusted z-score was inactive: -0.405.
In the case of CCUCUGAACUGAGCUUAAATT against NANOS1, the median seed-adjusted z-score is reported as inactive: 0.369.
In the case of GGAGUGUGCUUGUUUUCGATT against RRAGA, the median seed-adjusted z-score is reported as inactive: 0.511.
In the case of CUUUAUUUAUGACGACUUUTT against ZFP36, the median seed-adjusted z-score is reported as inactive: 0.106.
With AAGAAGAAGUGGACACUGATT against FGFRL1 the median seed-adjusted z-score was inactive: -0.111.
